Experimental data published in the supplement of paper PMC6414424.
± gives the standard deviation of the averaged measurements. The list shows a part of the results.

System: APPdp1-6 iPSC-derived neurons
Test: pThr231Tau/total Tau ratio Z-score vs DMSO vehicle wells; higher = more pThr231Tau relative to total Tau
Details: 5 µM; treatment time 5 days

Structure (SMILES) | pThr231Tau/total Tau ratio Z-score
CC(=O)Nc1cc([As](=O)(O)O)ccc1O | 1.52 ± 2.3
CC(=O)[O][Hg][c]1ccccc1 [PHENYLMERCURIC ACETATE    Therap cat:  fungicide] | -4.44 ± 0.27
O=c1[nH]c2ccccc2n1C1CCN(CCCC(c2ccc(F)cc2)c2ccc(F)cc2)CC1 [Prestw-308] | -1.01 ± 0.53
CN1C2CCC1CC(OC(=O)C(CO)c1ccccc1)C2 (stereo not given) [Prestw-565] | -0.23 ± 0.46
C#CCN(C)[C@H](C)Cc1ccccc1 [Prestw-552] | 0.307 ± 1.2
CN(C)C(=O)Oc1ccc[n+](C)c1 [Prestw-1322] | 0.0832 ± 1.3
C[C@@H]1O[C@@H](O[C@@H]2C=C3CC[C@@H]4[C@H](CC[C@]5(C)[C@@H](c6ccc(=O)oc6)CC[C@]45O)[C@@]3(C)CC2)[C@H](O)[C@H](O)[C@H]1O [Prestw-986] | -1 ± 2.8
C[C@@H]1O[C@@H](O[C@@H]2C=C3CC[C@@H]4[C@H](CC[C@]5(C)[C@@H](c6ccc(=O)oc6)CC[C@]45O)[C@@]3(C)CC2)[C@H](O)[C@H](O)[C@H]1O [PROSCILLARIDIN, cardiotonic] | -4.14 ± 2.2
NCCCNCCSP(=O)(O)O [Prestw-1489] | -0.685 ± 0.83
COP(=S)(OC)Oc1cc(Cl)c(Cl)cc1Cl [RONNEL, insecticide] | 0.896 ± 1.9
NCCC(O)C(=O)NC1CC(N)C(OC2OC(CN)C(O)[C@H](O)[C@@H]2N)[C@H](OC2O[C@H](CO)[C@@H](O)[C@@H]2O)[C@@H]1O (stereo not given in full) [Prestw-650] | 1.84 ± 1.1
Nc1ccc([As](=O)(O)O)cc1 [ARSANILIC ACID, antibacterial] | 0.153 ± 0.8
CC(C)C[C@H]1C(=O)N2CCC[C@H]2[C@]2(O)O[C@](NC(=O)[C@@H]3C=C4c5cccc6[nH]c(Br)c(c56)C[C@H]4N(C)C3)(C(C)C)C(=O)N12 [Prestw-121] | -1.15 ± 0.53
CNCC(O)c1ccc(O)cc1 (stereo not given) [Prestw-1088] | 0.973 ± 0.82
CN1C2CC(OC(=O)C(CO)c3ccccc3)CC1C1OC12 (stereo not given) [Prestw-877] | -0.393 ± 0.23
CCC1=C[C@H]2CN3CCc4c([nH]c5ccccc45)[C@](C(=O)OC)(C2)[C@H]13 [Prestw-187] | -0.174 ± 0.24
CNC(C)(C)Cc1ccccc1 [Prestw-726] | -0.472 ± 1.4
CCOP(=S)(OCC)Oc1cc(C)nc(C(C)C)n1 [DIAZINON    Use: insecticide, cholinesterase inhibitor] | 1.99 ± 2.6
C[C@]12CCC(=O)C(O)=C1CC[C@@H]1[C@@H]2CC[C@]2(C)C(=O)CC[C@@H]12 | 0.227 ± 0.0081
C[C@]12CCC(=O)C(O)=C1CC[C@@H]1[C@@H]2CC[C@]2(C)C(=O)CC[C@@H]12 [Prestw-1420] | -0.0663 ± 0.21

Structure (SMILES) | pThr231Tau/total Tau ratio Z-score
CNC(=O)Oc1ccc2c(c1)[C@]1(C)CCN(C)[C@@H]1N2C [Prestw-566] | -0.236 ± 0.57
CN(C)C(=O)Oc1cccc([N+](C)(C)C)c1 [Prestw-468] | -0.349 ± 0.29
COc1ccc(C(CN(C)C)C2(O)CCCCC2)cc1 (stereo not given) [Prestw-1170] | -0.663 ± 0.15
C[C@H](N)[C@H](O)c1ccccc1 [Prestw-324] | -0.214 ± 1.6
CCNCC(O)c1cccc(O)c1 (stereo not given) [Prestw-1017] | 2.14 ± 0.9
CN1CCc2cc3c(cc2C1O)OCO3 (stereo not given) | 0.547 ± 0.52
CC(C)(N)Cc1ccccc1 [Prestw-1308] | 0.892 ± 1.6
CC(=O)[C@H]1CC[C@H]2[C@@H]3CC[C@H]4C[C@H](O)CC[C@]4(C)[C@H]3C(=O)C[C@]12C [Prestw-1002] | 0.428 ± 0.17
C=C1C[C@@H]2[C@H](CC[C@]3(C)C(=O)CC[C@@H]23)[C@@]2(C)C=CC(=O)C=C12 [Prestw-1410] | 1.23 ± 1
COP(=S)(OC)Oc1ccc(Sc2ccc(OP(=S)(OC)OC)cc2)cc1 [TEMEPHOS    Use: insecticide] | 1.01 ± 2.2
CCOP(=S)(OCC)Oc1nc(Cl)c(Cl)cc1Cl [CHLORPYRIFOS    (DURSBAN)    Use: insecticide] | 0.432 ± 0.42
CCCCCCCCCCCCCCCC[n+]1ccccc1 | -3.18 ± 0.42
N[C@H]1C[C@@H]1c1ccccc1 [Prestw-173] | 0.488 ± 0.73
CC(=O)NC1CCSC1=O (stereo not given) [Prestw-644] | 0.517 ± 1.4
CNC(=O)Oc1ccccc1OC(C)C [PROPOXUR    Use: insecticide] | -0.242 ± 0.49
C[C@]12COC(=O)C[C@@H]1CC[C@@H]1[C@@H]2CC[C@@]2(C)[C@H]1CC[C@]2(C)O [Prestw-1192] | 1.31 ± 0.12
O=P1(N(CCCl)CCCl)NCCCO1 (stereo not given) [Prestw-1481] | 3.27 ± 1.5
c1ccc2c(c1)sc1ccccc12 [DIBENZOTHIOPHENE    Therap cat:  keratolytic] | 2.14 ± 2.4
CN(C)[C@@H]1C(=O)C(C(N)=O)=C(O)[C@@]2(O)C(=O)C3=C(O)c4c(O)cccc4[C@@](C)(O)[C@H]3[C@H](O)[C@@H]12 [Prestw-307] | 0.18 ± 0.99
CN1C(=O)CCS(=O)(=O)C1c1ccc(Cl)cc1 (stereo not given) [Prestw-336] | 0.227 ± 0.13

As a short view, part of the list above.
Structure (SMILES) | pThr231Tau/total Tau ratio Z-score
CCNCC(O)c1cccc(O)c1 (stereo not given) [Prestw-1017] | 2.14 ± 0.9
CN1CCc2cc3c(cc2C1O)OCO3 (stereo not given) | 0.547 ± 0.52
CC(C)(N)Cc1ccccc1 [Prestw-1308] | 0.892 ± 1.6
CC(=O)[C@H]1CC[C@H]2[C@@H]3CC[C@H]4C[C@H](O)CC[C@]4(C)[C@H]3C(=O)C[C@]12C [Prestw-1002] | 0.428 ± 0.17
C=C1C[C@@H]2[C@H](CC[C@]3(C)C(=O)CC[C@@H]23)[C@@]2(C)C=CC(=O)C=C12 [Prestw-1410] | 1.23 ± 1
COP(=S)(OC)Oc1ccc(Sc2ccc(OP(=S)(OC)OC)cc2)cc1 [TEMEPHOS    Use: insecticide] | 1.01 ± 2.2
CCOP(=S)(OCC)Oc1nc(Cl)c(Cl)cc1Cl [CHLORPYRIFOS    (DURSBAN)    Use: insecticide] | 0.432 ± 0.42
